# Assay results published in PubChem BioAssay AID540303 (National Center for Advancing Translational Sciences (NCATS), 2011).
# Among all 330,000 compounds or so, about 1,000 (0.3%) were called active. Inconclusive means that the source gave no clear call. Such entries were picked first, then a sample of the others. Calls follow the shape of the dose curve; as a rule, active = well fitted inhibition curve with a large enough effect; inconclusive = small, poorly fitted or top-dose-only effect; inactive = no such curve, though single readings can be large or run the other way; tested in mouse RAW 264.7 cells. Potencies of inconclusive entries are doubtful fits and often do not repeat.
# Experiment: qHTS for Inhibitors of Cell Surface uPA Generation; also: nearly all actives have a fitted effect of over 55% in size
# Conditions: cell surface uPA generation assay; series mostly up to 38.3 µM
# Method in brief: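 ATP-Lite luminescence in RAW 264.7 cells after 24 h of exposure to compound, tested up to 38.3 uM final in 1:5 steps. Raised ATP reflects inhibition of uPA-dependent LF delivery to the cytoplasm.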
# Potency is read from the fitted curve at half-maximal effect.
row,SMILES,Potency
1,CCC(=O)Oc1ccc(NC(=O)CSCc2ccccc2)cc1,active: 10 µM
2,CN1C(=O)c2cccc3c(N)ccc(c23)C1=O,"inconclusive: 6.31 µM [inhibitor, single point]"
3,C#Cc1ccc([C@@H]2C=C(C(=O)N3CCN(Cc4ccc5c(c4)OCO5)CC3)O[C@H](OCC)[C@H]2CCCO)cc1,"inconclusive: 28.2 µM [inhibitor, single point]"
4,CCn1c(=O)n(CC)c2cc(N3CCCC3)c(NC(=O)c3cccc(OC)c3)cc21,"inconclusive: 0.891 µM [inhibitor, full curve, poor fit]"
5,O=C(N1CCC(n2nc(-c3ccccc3)oc2=O)CC1)C1(c2ccc(Cl)cc2)CC1,inactive
6,COC(=O)Cn1c(CCS(=O)(=O)c2ccc(Cl)cc2)nc2ccccc21,inactive
7,Cc1cccc(-n2c(O)c(C=Nc3ccc(O)cc3)c3ccccc3c2=O)n1,"inconclusive: 10 µM [inhibitor, single point]"
8,CC(C)N(Cc1nccn1C)C(=O)c1cc(COc2cccc(C(F)(F)F)c2)on1,inactive
9,O=C1CSC(c2ccc(F)cc2)N1c1ccccc1F (stereo not given),inactive
10,CCS(=O)(=O)c1nc(S(=O)(=O)c2ccc(C)cc2)c(N2CCC(C)CC2)s1,"inconclusive: 1.26 µM [inhibitor, partial curve, poor fit]"
11,CCOC(=O)C1(Cc2ccc(Cl)cc2)CCN(C(=O)c2sc(C)nc2C)CC1,"inconclusive: 12.6 µM [inhibitor, partial curve, poor fit]"
12,CCOC(=O)c1c(NC(=O)CCS(=O)(=O)c2ccccc2)sc2c1CCN(C(C)C)C2,"inconclusive: 12.6 µM [inhibitor, single point]"
13,COc1cccc(OC)c1C(=O)Nc1ccc2c(c1)n(C)c(=O)n2C,"inconclusive: 0.891 µM [inhibitor, full curve, poor fit]"
14,COc1ccc(C(=O)Nc2ccc3ccccc3c2)cc1,active: 5.01 µM
15,C=CCNC(=O)/C(=C/c1cccc([N+](=O)[O-])c1)NC(=O)c1ccco1,inactive
16,Cc1cc(NC(=O)c2ccc(Cl)cc2)cc(C)c1OCC(=O)N1CCOCC1,active: 3.98 µM
17,Cc1cccc(-n2nc([N+](=O)[O-])c(=NC3CCN(Cc4ccccc4)CC3)n2O)c1,active: 2.82 µM
18,Cc1ccc(C(=O)N2CC(=O)Nc3ccc(F)cc3C2c2ccccc2)cc1 (stereo not given),inactive
19,COCCOC(=O)C1=C(C)N(c2ccccc2)C(=S)NC1c1ccccc1C(F)(F)F (stereo not given),"inconclusive: 15.8 µM [inhibitor, partial curve, poor fit]"
20,Cc1cccc(NC(=O)c2cnc3sccn3c2=O)c1,active: 10 µM
21,O=C(c1ccc(S(=O)(=O)N2CCCC2)cc1)N1CCN(c2ccccc2F)CC1,"inconclusive: 2.82 µM [inhibitor, single point]"
22,CCOc1cccc(C(=O)Nc2cccc(-c3nnc(-c4ccccc4)o3)c2)c1,inactive
23,CN(C(=O)c1ccc(NC(=O)Cc2cccc(NC(=O)C3CCN(C(=O)c4ccccc4)CC3)c2)cc1)C1CC1,"inconclusive: 12.6 µM [inhibitor, partial curve, poor fit]"
24,Cc1ccc(S(=O)(=O)N2C(=O)CCC2C(N)=O)cc1 (stereo not given),"inconclusive: 7.08 µM [inhibitor, partial curve, poor fit]"

row,SMILES,Potency
1,CC(C)c1ccc(NC(=O)COC(=O)c2ccc(CN3CCCC3=O)cc2)cc1,"inconclusive: 0.316 µM [inhibitor, full curve, poor fit]"
2,COc1ccc(N2CCN(C3CCCN(C(=O)C4=C(C)OCCO4)C3)CC2)cc1 (stereo not given),inactive
3,COc1ccc(N2CCN(C(=O)c3c(C)nn(-c4ccccc4)c3C)CC2)cc1,inactive
4,Cc1cccnc1NC(=O)c1ccc(S(=O)(=O)N2CCCCCC2)cc1,inactive
5,CCn1c(C)cc(/C=C2/NC(=O)N(c3ccccc3)C2=O)c1C,inactive
6,O=C(COC(=O)CC1SC(N2CCCC2)=NC1=O)Nc1c(F)c(F)c(F)c(F)c1F (stereo not given),"inconclusive: 2.51 µM [inhibitor, full curve, poor fit]"
7,COc1ccc(-c2nsc3c(N4CCCCC4)ncnc23)cc1,inactive
8,C/C(=N\NC(=O)COc1ccccc1-c1ccccc1)c1ccc(O)cc1O,"inconclusive: 5.01 µM [inhibitor, partial curve, poor fit]"
9,CC(=O)N/N=C/c1ccccc1OCCOc1cccc(C)c1,active: 12.6 µM
10,Cc1ccc(NC(=S)Nc2cccc(-c3n[nH]c(=S)o3)c2)cc1,inactive
11,CCc1nnc(NC(=O)CSc2nccn2-c2cc(C)cc(C)c2)s1,"inconclusive: 12.6 µM [inhibitor, single point]"
12,COc1ccccc1Oc1ccc(NC(=O)c2ccccc2C)cc1,inactive
13,CC(=O)c1c(C)[nH]c(C(=O)Nc2nc(-c3ccccc3)c(C)s2)c1C,inactive
14,COc1ccc(C2C(=O)c3ccccc3C2=Nc2ccc(Br)cc2)cc1 (stereo not given),"inconclusive: 0.355 µM [inhibitor, partial curve, poor fit]"
15,CCOC(=O)N1CCN(C(=O)c2ccc3c(c2)N(Cc2ccc(F)cc2)CCS3)CC1,"inconclusive: 11.2 µM [inhibitor, single point]"
16,O=C1CN(S(=O)(=O)c2cc(Br)ccc2Br)CCN1,inactive
17,CC(C)(C)C(=O)C1=C(O)C(=O)N(c2ccccc2)C1c1ccccc1 (stereo not given),"inconclusive: 10 µM [inhibitor, single point]"
18,O=C(CCN1C(=O)S/C(=C\c2ccc(F)cc2)C1=O)Nc1ccc(C(=O)O)c(O)c1,"inconclusive: 5.01 µM [inhibitor, partial curve, poor fit]"
19,CC(C)OC(=O)/C(C#N)=C/c1cn(C)c2ccccc12,inactive
20,O=C(Nc1nccs1)c1ccc(Br)c(S(=O)(=O)N2CCOCC2)c1,inactive
21,CCOc1cc(NC(=O)C2CC2)c(OCC)cc1NC(=O)CCn1nnc2ccccc21,inactive
22,Cc1cc(OCC(O)CN2CCc3ccccc3C2)cc(C(C)C)c1 (stereo not given),"inconclusive: 0.501 µM [inhibitor, full curve, poor fit]"
23,C/C(=N\Nc1nc2ccccc2[nH]1)c1cc2ccccc2o1,"inconclusive: 5.01 µM [inhibitor, partial curve, poor fit]"
24,N#CC1=C(N)C(C#N)(C#N)[C@H](c2cccnc2)[C@H]2CN(C(=O)OCc3ccccc3)CC=C12,"inconclusive: 10 µM [inhibitor, single point]"

# A section of the results above, for reference:
row,SMILES,Potency
6,O=C(COC(=O)CC1SC(N2CCCC2)=NC1=O)Nc1c(F)c(F)c(F)c(F)c1F (stereo not given),"inconclusive: 2.51 µM [inhibitor, full curve, poor fit]"
7,COc1ccc(-c2nsc3c(N4CCCCC4)ncnc23)cc1,inactive

# Shown as tab-separated lines: entries from further up
row	SMILES	Potency
24	Cc1ccc(S(=O)(=O)N2C(=O)CCC2C(N)=O)cc1 (stereo not given)	inconclusive: 7.08 µM [inhibitor, partial curve, poor fit]
3	COc1ccc(N2CCN(C(=O)c3c(C)nn(-c4ccccc4)c3C)CC2)cc1	inactive

# Further compounds follow.

row,SMILES,Potency
1,Cc1c(C(=O)N2CCCCC2)oc2ccccc12,inactive
2,CSc1ncccc1C(=O)N1CCN(S(=O)(=O)c2cc(C)ccc2C)CC1,inactive
3,CCN1C(=O)c2cccc3c(S(=O)(=O)NCC4CCCO4)ccc1c23 (stereo not given),"inconclusive: 7.94 µM [inhibitor, single point]"
4,Cc1onc(C(=O)N2CCN(C(c3ccccc3)c3ccccc3)CC2)c1[N+](=O)[O-],active: 10 µM
5,CC(C)(C)OC(=O)NCCCCCNC(=O)c1nc[nH]c1C(=O)NCc1ccc(CNC(=O)OC(C)(C)C)cc1,"inconclusive: 28.2 µM [inhibitor, single point]"
6,Cc1ccc(NC(=O)Cn2cnc3c(NCc4ccccc4)ncnc32)cc1C,inactive
7,C/C(=N\NS(=O)(=O)c1ccc(Br)cc1)c1ccc2c(c1)OCO2,"inconclusive: 31.6 µM [inhibitor, partial curve, poor fit]"
8,CC1CCCN(c2ccc(C(=O)Nc3ccc4c(c3)OCO4)cc2[N+](=O)[O-])C1 (stereo not given),inactive
9,CN(C(=O)CC(=O)Nc1ccc(Cl)c(Cl)c1)c1ccccc1,inactive
10,CCNC(=O)COC(=O)c1cc(-c2ccc(OC)cc2)nc2ccccc12,"inconclusive: 4.47 µM [inhibitor, partial curve, poor fit]"
11,O=C(c1cc2ccccc2o1)N1CCN=C1SCc1cccnc1,inactive
12,CNC(=O)N(C1=NCC(C)(C)S1)c1ccc(F)c(Cl)c1,"inconclusive: 10 µM [inhibitor, partial curve, poor fit]"
13,COc1cccc(C(=O)N/N=C/c2ccc(Oc3ccc([N+](=O)[O-])cn3)c(OC)c2)c1,"inconclusive: 12.6 µM [inhibitor, partial curve, poor fit]"
14,CCOC(=O)c1c(C)[nH]c(C)c1S(=O)(=O)NCC1CCN(Cc2ccccc2F)CC1,"inconclusive: 10 µM [inhibitor, single point]"
15,COc1ccc(-c2csc3ncnc(N4CCN(c5cccc(Cl)c5)CC4)c23)cc1,active: 11.2 µM
16,O=C(N/N=C/c1ccc(O)cc1O)c1ccc(NC(=O)C2CCCCC2)cc1,"inconclusive: 3.98 µM [inhibitor, partial curve, poor fit]"
17,O=C(O)c1ccc(N/N=C/c2cc3ccccc3nc2Cl)cc1,"inconclusive: 5.62 µM [inhibitor, partial curve, poor fit]"
18,CC(=O)Nc1ccc(S(=O)(=O)NCC2CCC(C(=O)NCCCN(C)Cc3ccccc3)CC2)cc1 (stereo not given),inactive
19,CCCCNC(=S)N(CCN(CC)CC)Cc1cc2cc3c(cc2[nH]c1=O)OCCO3,"inconclusive: 12.6 µM [inhibitor, single point]"
20,O=C(NCc1cccc(C(F)(F)F)c1)C1CC(c2ccccc2[N+](=O)[O-])=NO1 (stereo not given),"inconclusive: 12.6 µM [inhibitor, single point]"
21,CCOC(=O)C1=C(C)N=c2s/c(=C/c3cccc([N+](=O)[O-])c3O)c(=O)n2C1c1cc(OC)c(OC)c(OC)c1 (stereo not given),inactive
22,CC(CC(=O)N1CCN(c2cccc(Cl)c2)CC1)S(=O)(=O)c1ccc2c(c1)NC(=O)CO2 (stereo not given),"inconclusive: 11.2 µM [inhibitor, single point]"
